# According to the supplement of paper PMC3334620:
# In all, about 33,000 sequences were measured (“E-score (-0.5 to 0.5)”: median about -0.0059, highest 2% from about 0.26 on). The list shows a part of the results.
# Molecular target: T1, Cin5 (UniProt P40917)
# T1 sequence: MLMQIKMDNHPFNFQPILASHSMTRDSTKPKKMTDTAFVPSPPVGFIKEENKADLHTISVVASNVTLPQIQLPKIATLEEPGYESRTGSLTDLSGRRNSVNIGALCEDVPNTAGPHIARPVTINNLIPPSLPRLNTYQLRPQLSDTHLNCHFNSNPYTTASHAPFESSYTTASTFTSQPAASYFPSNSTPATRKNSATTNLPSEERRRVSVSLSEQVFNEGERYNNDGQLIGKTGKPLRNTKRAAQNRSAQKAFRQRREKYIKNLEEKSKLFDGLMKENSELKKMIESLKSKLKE
# Assay: PBM E-score (8-mer binding enrichment) (E-score (-0.5 to 0.5)); higher = stronger / more preferred TF binding
# Details: protein concentration: 100 nM; construct: GST-full length
# Outline: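 Using PURExpress in vitro transcription/translation, GST-tagged yeast transcription factors were made in full-length or DNA-binding-domain form. These were applied at about 100-200 nM to double-stranded universal all-10-mer Agilent arrays, and bound protein was detected with fluorescent anti-GST. Scans were normalised with masliner before the Universal PBM Analysis Suite assigned E-scores to ungapped eight-base words pooled with their reverse complements.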
row,Sequence,PBM E-score
1,GATATAAC,0.115
2,ATCACCCG,0.0127
3,CGATTGGC,-0.0332
4,GTTCTGGA,-0.104
5,AATGGATG,0.125
6,ACAGGTAA,0.143
7,ACACAACA,-0.0184
8,AATGTTTC,0.0706
9,TCAAGGAA,0.049
10,TCCCGAAA,-0.00206
11,AGTGGTAT,0.0695
12,AATCGCCA,0.00791
13,ACAAGTAT,0.221
14,AAGAGTGC,-0.0247
15,AATTTGGT,0.197
16,ATGCTCCG,-0.0609
17,ACCACCCA,0.147
18,AGACTTAC,-0.0833
19,CAAGCGGC,0.00179
20,GACGCGGC,-0.0283
21,CTCTTTAC,-0.0395
22,ACTTGACA,-0.104
23,CGACGTTA,0.158
24,ACTACGGC,-0.125
25,TCACTTAA,0.0953

row,Sequence,PBM E-score
1,ACCATTAG,-0.00403
2,GTAATACA,0.181
3,ATATTGAC,0.00999
4,AAGCCCCT,-0.0849
5,GTTGTCAA,0.00927
6,GCTATTAA,0.0303
7,GGAATACC,-0.0241
8,AGAAAACC,0.0613
9,CCCGGTCA,-0.102
10,GCACATGA,-0.108
11,ATTCTGTC,0.0802
12,ACATAGCT,-0.238
13,GTCTCTGA,-0.16
14,AATGTCAC,0.0888
15,CGCTTTAA,0.0291
16,GAGAGACC,-0.227
17,TACATCTA,0.185
18,ACGTCCGC,0.0917
19,ACTCGAAA,-0.0536
20,ACAACCGT,-0.172
21,ACAACCTA,0.0123
22,ACATGGCC,0.139
23,TTGACCAA,0.0912
24,ATAAACTA,0.14
25,ACGAGTCG,-0.116

# Seven entries drawn at random from those above, as already listed:
row,Sequence,PBM E-score
7,GGAATACC,-0.0241
1,ACCATTAG,-0.00403
9,CCCGGTCA,-0.102
14,AATGTCAC,0.0888
15,CGCTTTAA,0.0291
3,ATATTGAC,0.00999
11,ATTCTGTC,0.0802

# Further entries follow:

row,Sequence,PBM E-score
1,CGAAGGAG,-0.125
2,CGTAACAA,0.0408
3,GACTTTCA,-0.0684
4,GACAACCC,0.00981
5,ATACACGG,0.0384
6,AGCGGATG,0.00547
7,CTGTCCGC,0.0282
8,TGATAGCA,0.16
9,AAATGATA,0.279
10,ATGTAAAT,0.207
11,GCACAAGC,0.0524
12,AGGGGCCC,-0.15
13,CTAATTAG,0.195
14,ATTCAGAA,-0.0671
15,AGAGCTAC,-0.0377
16,CGGCACTC,-0.0609
17,CCGAAGGA,-0.153
18,CACGATCC,-0.0444
19,CTATAGCC,-0.29
20,CGGTGCAC,-0.172
21,ACTATTCA,0.172
22,AAGCGCTT,0.242
23,ATCCGGTG,0.0447
24,CATGGCCC,-0.141
25,CCGTATAC,0.0103

row,Sequence,PBM E-score
1,CCGAGACA,-0.0446
2,TCCGTTAA,0.112
3,CGGTTCCC,-0.0959
4,CTCCAGAC,-0.141
5,GGGACAAA,-0.0801
6,CAACCGCC,-0.126
7,TAGGTTAA,0.137
8,CTTATGTC,0.219
9,TATGTGAA,0.0804
10,GCCTAACC,-0.12
11,CAAAGTCC,-0.155
12,TAGAGTAA,0.153
13,AGATCAAG,0.0682
14,AAGGTTCG,-0.0683
15,GTTGGCAA,-0.109
16,CCGTGTCC,-0.0224
17,ACGTATCA,0.156
18,CCAGGTAA,0.0331
19,AACTAATA,0.378
20,CAGCGCCG,-0.195
21,CCCCTTCG,-0.26
22,GCACATAA,0.0702
23,CCAGGTAC,-0.27
24,AACCTGCC,-0.167
25,CGGAGAAA,0.0137

row,Sequence,PBM E-score
1,CAGCAGAC,-0.0879
2,CGAGTAGA,-0.139
3,ACTTGATG,0.156
4,ACAAAATC,0.111
5,GGGAATCA,-0.0779
6,CAAAGCCG,-0.158
7,TAAAGGCA,0.0781
8,ACAAAAGT,0.0602
9,AAGGGACG,-0.196
10,AACCACAT,0.229
11,GAAGTAGC,-0.0396
12,GATGGGGA,0.0634
13,GGCCTTTA,-0.18
14,GTGGCCAA,0.0452
15,ACCTGCGT,-0.0767
16,GGGTTGAA,-0.0789
17,ATCAGTCC,-0.343
18,CGCATACG,0.0193
19,CCTTAAGG,-0.0006
20,CGCTAGGA,-0.11
21,CGTAACTC,-0.0438
22,AGGTTCAT,0.0138
23,CATACCAC,-0.00077
24,CCGCGTGC,-0.0723
25,GATTAAAA,0.185

row,Sequence,PBM E-score
1,CACATGGC,-0.136
2,AGAAGACC,-0.0854
3,ACAAATGG,0.0952
4,CTGTACTA,0.091
5,CTACACGC,-0.136
6,AAGTTACA,0.187
7,TAGTGTGA,0.0144
8,AGTCGCGA,0.167
9,AGCTATCC,-0.187
10,CCCGAGGC,-0.239
11,CCAACTCG,0.0703
12,ACGGGTTA,-0.139
13,ATGCCAAG,-0.045
14,CCTGCCGA,-0.126
15,GTACACTA,-0.0516
16,TCCATAGA,-0.253
17,CTATGGCC,-0.0903
18,CCCGGGAC,0.019
19,TCACAAAA,0.192
20,CTTGTGTC,0.0151
21,AGCACGGA,-0.0197
22,CCCTGGAA,-0.27
23,TGGATAAA,0.0255
24,ACGTATCC,-0.077
25,ACACACCC,-0.0386

row,Sequence,PBM E-score
1,CGTTGTCC,0.0987
2,CACCGCGG,0.167
3,ACCTCACA,-0.0167
4,ACCTCGAG,0.204
5,CATTATTA,0.223
6,CCTTAAAC,-0.123
7,CGGACCGA,0.0397
8,TGGGGACA,-0.131
9,GAGTCTCA,-0.224
10,AGACATTA,0.0338
11,ATTGTGAA,0.0824
12,CAAAGGCG,-0.116
13,GCAAGGTA,0.0452
14,CAGCCCCA,0.104
15,CCTATGAA,-0.0816
16,GGATACAA,0.105
17,ATAATCTG,0.153
18,AGGATCAA,0.0833
19,ACCCCACC,0.185
20,CAAGATCA,0.0266
21,AAATCCCT,-0.114
22,CGACTCAG,0.00897

# Given with tabs: entries from further up
row	Sequence	PBM E-score
2	CACCGCGG	0.167
4	ACCTCGAG	0.204
6	CCTTAAAC	-0.123
20	CAAGATCA	0.0266
